19 targets from the supplement of paper PMC10849652 can be followed below.

Some of the results follow.

Compound in one assay: Cc1ccc(NC(=O)c2ccc(CN3CC[C@H](N(C)C)C3)c(C(F)(F)F)c2)cc1Nc1nccc(-c2cncnc2)n1 [bafetinib]
Description: log2 fold change, soluble protein after heating vs DMSO (PISA); higher = thermal stabilisation; K562 lysate, 10 uM; active = over 0.2 and 3.5 SD of the protein, either way, in both replicates (recomputed). A digest of the protocol:
(§1)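 Dounce homogenisation of K562 pellets in PBS pH 7.4 with 1 mM MgCl2 produced a crude extract, used at 1 mg/mL protein. Exposure to 10 μM compound lasted 30 min, and aliquots were then heated for 3 min across 48°C-58°C, pooled and brought to 0.5% NP-40 at 4°C. The supernatant after 21,000xg for 90 min was quantified by TMTpro 16plex LC-MS/MS with channel sums equalised. Duplicate values are given as log-two fold change in thermal stability relative to solvent controls.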
UNG (UniProt P13051): the log2 fold change is inactive: -0.076. The same measure, in the same setting: in the case of VCPKMT (UniProt Q9H867) it was inactive: -0.014.

As for UNKL (UniProt E9PDK2), the log2 fold change was inactive: -0.041. On the same count and under the same terms, for USP20 (UniProt Q9Y2K6) the value was inactive: 0.196; for UTRN isoform 2 (UniProt P46939), inactive: -0.175; for URGCP (UniProt Q8TCY9), inactive: -0.137. UGCG (UniProt Q16739): the log2 fold change was inactive: -0.092. On the same count and under the same terms, for USP22 (UniProt Q9UPT9) the value was inactive: -0.032. Still for that read-out and setting: for VHL (UniProt P40337) the value was inactive: 0.092; for VGLL4 isoform 4 (UniProt Q14135), inactive: 0.205.

Compound in another assay: Cc1cccc(CC(=O)N2CCc3c2ccc(-c2cn(C)c4ncnc(N)c24)c3F)n1
The description is as above. The procedure, abridged:
as §1
For the target USP36 (UniProt Q9P275), the log2 fold change is inactive: -0.031.

Turning to VEGFA (UniProt H0YBI8), the log2 fold change was inactive: -0.049.

For the target UNG (UniProt P13051), the log2 fold change is inactive: 0.008. Same read-out and setting: for UMAD1 (UniProt C9J7I0) the value was inactive: 0.055. Same read-out and setting: in the case of USP12 (UniProt O75317) it was inactive: 0.093; in that of USP30 (UniProt Q70CQ3), inactive: 0.063.

Regarding VEGFA isoform 14 (UniProt P15692), the log2 fold change was inactive: 0.016. On the same count and under the same terms, in the case of USP6NL isoform 2 (UniProt Q92738) it was inactive: -0.035; in that of UTRN isoform 2 (UniProt P46939), inactive: -0.018. The same measure, in the same setting: in the case of UNC13A (UniProt Q9UPW8) it was inactive: 0.481. Same read-out and setting: in the case of USP22 (UniProt Q9UPT9) it was inactive: 0.019. In the case of VHL (UniProt P40337), the log2 fold change is inactive: -0.021. Regarding VGLL4 isoform 4 (UniProt Q14135), the log2 fold change was inactive: -0.079.

Turning to USP33 (UniProt Q8TEY7), the log2 fold change was inactive: 0.15.
